From PubChem BioAssay AID540256 (National Center for Advancing Translational Sciences (NCATS), 2011)
Screen size: about 300,000 compounds; about 3,700 (1.2%) were called active. The inconclusive results got no clear call from the source; some entries with a clear call stand among them for comparison. Calls follow the shape of the full dose curve; tested in HEK293 cells. Potencies of inconclusive entries are doubtful fits and often do not repeat.

Assay: qHTS for Inhibitors of binding or entry into cells for Lassa Virus; also: nearly all actives have a fitted effect of over 50% in size
Conditions: Lassa virus pseudotype entry inhibition, cell reporter; series mostly up to 37.9 µM
Potency is read from the fitted curve at half-maximal effect.

Compound | Potency
CC(=O)c1cccc(NC(=O)C2=CC(c3cccs3)=NS(=O)(=O)N2C)c1 | inactive
CCSc1nnc(NC(=O)CSc2nncc(=O)n2N)s1 | inactive
CCOC(=O)c1[nH]c(CSc2nnnn2-c2ccccc2C)c(C(=O)OCC)c1C | inconclusive: 7.94 µM [inhibitor, partial curve, poor fit]
O=C(Nc1ccc(Cl)cc1)O/N=C(\c1ccccc1)c1ccccn1 | inactive
Cc1cc(/C=N/NC(N)=S)c(C)n1-c1cccc(Cl)c1 | inconclusive: 20 µM [inhibitor, single point]
COc1cccc(-c2nc(S(=O)(=O)c3ccc(C)cc3)c(NCc3ccccc3)o2)c1 | active: 10 µM
C=C(C)CSc1nc2ccccc2c(=O)n1-c1c(C)n(C)n(-c2ccccc2)c1=O | inconclusive: 0.794 µM [inhibitor, full curve, poor fit]
Nc1cc(N)nc(SCC(=O)NCc2ccco2)n1 | inactive
O=C(COC(=O)c1nc(Cl)ccc1Cl)c1ccccc1Cl | inactive
O=C1c2cccc3cccc(c23)C(=O)N1CCN1CCN(CC(O)COc2ccc3ccccc3c2)CC1 (centres undefined) | inconclusive: 11.2 µM [inhibitor, partial curve, poor fit]
Cc1cc(C(=O)N2CCCc3ccccc32)no1 | inconclusive: 25.9 µM [activator, single point]
Cc1ccc(NC(=O)c2nc[nH]c2C(=O)N2CCCCC2)c(C(=O)c2ccccc2)c1 | inconclusive: 10 µM [inhibitor, partial curve, poor fit]
COc1ccc(OC)c(S(=O)(=O)N2CCC3(CC2)OCCN3S(=O)(=O)c2cccs2)c1 | inconclusive: 5.62 µM [activator, single point]
COc1ccc(OC)c(NC(=O)c2ccc3c(=O)n(CCc4ccccc4)c(=S)[nH]c3c2)c1 | inconclusive: 1 µM [inhibitor, partial curve, poor fit]
Cc1ccc(C(=O)N2CCN(S(=O)(=O)c3ccc(C(C)C)cc3)CC2)s1 | inactive
O=C(N/N=C/c1ccccc1)c1n[nH]c2c1CCCC2 | inconclusive: 25.1 µM [inhibitor, single point]
COc1ccccc1N1CCN(CC(=O)c2c(C)[nH]c3cc(C)ccc23)CC1 | inactive
O=C(c1ccco1)N1CCN(S(=O)(=O)c2ccccc2[N+](=O)[O-])CC1 | inactive
CCC(=O)C1=C(c2cccc([N+](=O)[O-])c2)N(C(=O)CC)n2c(nnc2C2CCCCC2)S1 | inconclusive: 3.16 µM [inhibitor, full curve]
CC(C)S(=O)(=O)c1csc(NC(=O)Nc2ccc(Cl)cc2)c1 | inactive
Cc1cc(NC(=O)CSc2nnnn2-c2ccc(C)c(Cl)c2)no1 | inactive
CCOC(=O)N1CCN(C(=O)c2ccc(C)c(S(=O)(=O)Nc3ccccc3)c2)CC1 | inconclusive: 35.5 µM [inhibitor, single point]
CCCN(CC(=O)Nc1ccccc1OC)C(=O)CCCN1C(=O)c2ccccc2C1=O | inactive

Looked up by compound from the list above, 2 records:
Compound | Potency
CCC(=O)C1=C(c2cccc([N+](=O)[O-])c2)N(C(=O)CC)n2c(nnc2C2CCCCC2)S1 | inconclusive: 3.16 µM [inhibitor, full curve]
CCSc1nnc(NC(=O)CSc2nncc(=O)n2N)s1 | inactive

Going on with the list.

Compound | Potency
COc1ccc(Cl)cc1NC(=O)c1cc(=O)c2cc(C)cc(C)c2o1 | inactive
O=C(NCc1ccco1)c1ccc(N2CCOCC2)c([N+](=O)[O-])c1 | inconclusive: 11.2 µM [inhibitor, partial curve, poor fit]
CCc1nn2c(=O)cc(COC(=O)c3cccc(NC(=O)COc4ccccc4F)c3)nc2s1 | inconclusive: 22.4 µM [inhibitor, single point]
CC(=NNC(=S)N1CCN(C2CCCCCC2)CC1)c1ccccn1 | active: 0.282 µM
COc1c(Br)cc2c(C)c(C(=O)N3CCOCC3)oc2c1Br | inconclusive: 0.355 µM [inhibitor, full curve, poor fit]
CN(CCC1CCCCO1)C(=O)CCc1nnc(CCc2ccccc2)o1 (centres undefined) | inactive
CN1CCN(C(=O)c2cnn(-c3ccccc3)c2C2CCN(C(=O)OC(C)(C)C)CC2)CC1 | inconclusive: 7.94 µM [inhibitor, partial curve, poor fit]
Cc1cc2nc(CSc3ccc(Cl)cc3)cc(=O)n2[nH]1 | inactive
Cc1cccc(NC(=O)C2CCCN(S(=O)(=O)c3cccc4nsnc34)C2)c1 (centres undefined) | inconclusive: 25.9 µM [inhibitor, partial curve, poor fit]
CCOc1ccc(CNC(=S)N/N=C/c2ccc(OC)c(OC)c2)cc1 | active: 2.82 µM
COc1ccc(N2CCN(C(=O)CCc3ccc(S(=O)(=O)NCC(C)C)cc3)CC2)cc1 | inconclusive: 14.1 µM [inhibitor, single point]
CCN(CC1COc2ccccc2O1)C(=O)CN1C(=O)NC(C)(c2ccc(C)cc2)C1=O (centres undefined) | inconclusive: 0.112 µM [inhibitor, full curve, poor fit]
Cc1ccc(NC(=O)N(Cc2ccco2)C(C)c2ccco2)cc1C (centres undefined) | inactive
CCOc1ccc(/C=N/NC(=S)NC2CC3CCC2C3)cc1 (centres undefined) | inconclusive: 17.8 µM [inhibitor, single point]
COc1ccc(S(=O)(=O)N2CCOCC2)cc1NC(=O)COC(=O)c1ccc([N+](=O)[O-])s1 | inconclusive: 1.41 µM [activator, partial curve, poor fit]
CCOC(=O)[C@@H]1CSCCS(=O)(=O)N1Cc1ccccc1Br | inconclusive: 0.112 µM [inhibitor, full curve, poor fit]
COc1cc(-c2nc(-c3ccc4c(c3)-c3ccccc3S4(=O)=O)c(-c3ccccc3)[nH]2)cc(OC)c1OC | inconclusive: 15.8 µM [inhibitor, partial curve, poor fit]
COc1ccc(NC(=O)c2ncoc2-c2ccco2)cc1Cl | inactive
Cc1cccc(N=C2NC(=O)S/C2=C\c2ccco2)c1 | inactive
CC(CNC(=O)c1ccc2nc(CCc3ccccc3)oc2c1)c1ccccc1 (centres undefined) | inactive
O=C(Oc1ccc2c(=O)c(Oc3ccc4ccccc4c3)coc2c1)c1ccco1 | inconclusive: 35.5 µM [inhibitor, single point]
COc1ccc(NC(=O)c2cc(C(C)=O)n3ccccc23)cc1Cl | inconclusive: 2.82 µM [inhibitor, partial curve, poor fit]
C=CCn1c(SCC(=O)NCCO)nc2sc(C)c(C)c2c1=O | inactive

Reformatted as labelled records: four of the compounds above
Cc1cc2nc(CSc3ccc(Cl)cc3)cc(=O)n2[nH]1
  Potency: inactive
Cc1cccc(NC(=O)C2CCCN(S(=O)(=O)c3cccc4nsnc34)C2)c1 (centres undefined)
  Potency: inconclusive: 25.9 µM [inhibitor, partial curve, poor fit]
CCOc1ccc(CNC(=S)N/N=C/c2ccc(OC)c(OC)c2)cc1
  Potency: active: 2.82 µM
COc1ccc(N2CCN(C(=O)CCc3ccc(S(=O)(=O)NCC(C)C)cc3)CC2)cc1
  Potency: inconclusive: 14.1 µM [inhibitor, single point]

The list continues:

Compound | Potency
COc1ccc(NC(=S)N2CCCN(Cc3cccc(Cl)c3)C2)cc1 | inconclusive: 35.5 µM [inhibitor, single point]
COc1ccccc1NC(=O)c1cc2c(CO)cnc(C)c2oc1=Nc1cc(OC)c(OC)c(OC)c1 | inconclusive: 3.16 µM [inhibitor, single point]
Cc1ccc(OCC(=O)NC(=S)Nc2ccccn2)c(Br)c1 | inconclusive: 1.12 µM [inhibitor, full curve, poor fit]
COc1ccc(Cl)cc1NC(=S)N(Cc1ccccc1C)CC1CCC(C(=O)O)CC1 (centres undefined) | inconclusive: 7.08 µM [inhibitor, partial curve, poor fit]
CN(C(=O)C1CCCCN1S(=O)(=O)c1ccccc1)c1ccccc1 (centres undefined) | inconclusive: 35.5 µM [inhibitor, single point]
N#Cc1nc(COc2ccc(-c3ccccc3)cc2)oc1NCc1cccnc1 | inconclusive: 11.2 µM [inhibitor, partial curve, poor fit]
O=C(Nc1nncs1)c1cc(S(=O)(=O)N2CCCCC2)ccc1Cl | inconclusive: 3.55 µM [inhibitor, single point]
O=C(CS(=O)(=O)c1ccccc1)N1CCc2ccccc21 | inactive
O=c1oc(-c2ccccc2NS(=O)(=O)c2ccc(F)cc2)nc2ccccc12 | inactive
CCOC(=O)Cc1csc(NC(=O)CSc2nnnn2-c2ccc(F)cc2)n1 | inconclusive: 0.092 µM [inhibitor, partial curve, poor fit]
Cc1ccc(-n2nc(-c3cccs3)cc2C(=O)NCC2CCCO2)c(C)c1 (centres undefined) | inconclusive: 32.6 µM [inhibitor, partial curve, poor fit]
O=C(COc1ccccc1)NCC(=O)N/N=C/c1cc(Br)ccc1OCc1ccccc1 | inconclusive: 35.5 µM [inhibitor, single point]
COc1ccccc1C1CC(c2c(-c3ccccc3)c3cc(Cl)ccc3[nH]c2=O)=NN1S(C)(=O)=O (centres undefined) | inconclusive: 22.4 µM [inhibitor, single point]
CN(C)CCn1nnc2c(=O)oc3ccccc3c21 | inactive
Cc1cnc(C(=O)Nc2ccc(N3CCN(C(=O)OC(C)(C)C)CC3)cc2)cn1 | inconclusive: 0.631 µM [inhibitor, full curve, poor fit]
C=CCN(C(=O)c1ccccc1)c1ccc(OC)cc1 | inconclusive: 35.5 µM [inhibitor, single point]
CC1CN(Cc2cc(=O)oc3cc(O)ccc23)CC(C)O1 (centres undefined) | inactive
O=c1c2ccccc2nc(-c2ccc([N+](=O)[O-])cc2)n1O | inconclusive: 35.5 µM [inhibitor, single point]
Cc1sc(NC(=O)c2ccco2)c(C(=O)c2ccc(Cl)cc2)c1C | inactive
CC(NC(=O)/C=C/c1ccco1)c1nc2ccccc2n1Cc1cccc(Cl)c1 (centres undefined) | inconclusive: 35.5 µM [inhibitor, single point]
COc1ccc(NC(=O)Nc2ccc(CC(=O)O)cc2)cc1 | inconclusive: 3.16 µM [inhibitor, single point]
COc1ccccc1N(CC(O)COc1ccccc1C)S(=O)(=O)c1ccccc1 (centres undefined) | inconclusive: 32.6 µM [inhibitor, single point]
Cc1ccc(C(=O)Nc2ccc(Br)c(C(F)(F)F)c2)cc1 | inconclusive: 29.1 µM [inhibitor, single point]
